From publication PMC5389555 come the findings set out here.

Sequences of proteins named here, by UniProt entry; tags and fusion partners are left off. A change or cut given only in a name is not applied to a line headed by its entry.
UniProt P49841: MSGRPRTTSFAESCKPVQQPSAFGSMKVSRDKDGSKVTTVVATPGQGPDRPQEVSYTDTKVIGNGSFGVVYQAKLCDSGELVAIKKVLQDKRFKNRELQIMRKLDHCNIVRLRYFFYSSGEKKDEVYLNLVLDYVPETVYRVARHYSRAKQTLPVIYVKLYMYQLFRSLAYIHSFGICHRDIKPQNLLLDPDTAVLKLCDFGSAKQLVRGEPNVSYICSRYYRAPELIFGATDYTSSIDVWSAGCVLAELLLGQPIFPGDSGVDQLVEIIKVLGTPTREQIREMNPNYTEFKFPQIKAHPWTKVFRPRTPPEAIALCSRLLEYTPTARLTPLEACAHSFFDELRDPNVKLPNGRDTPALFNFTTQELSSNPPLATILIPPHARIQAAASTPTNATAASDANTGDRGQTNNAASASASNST

No constants are given. Whether binding was seen depends on the method and setting. In cells and extracts the contact can be indirect. Some entries that bind do so weakly or less than the wild type.

The target in test [1] is Glycogen synthase kinase 3β (GSK3β) (endogenous) (human (endogenous in HEK293T)) (UniProt P49841). The experiment in a line: co-IP; endogenous GSK3β precipitated from HEK293T lysates (cells ± 2 μM 99021, 48 h) with mouse anti-GSK3β antibody on Protein G Dynabeads, 4°C overnight; mouse IgG control; blots for DGCR8 and p72.
The next test deals with HA-GSK3β (wild-type) (UniProt P49841). The experiment in a line: co-IP; HEK293T transfected with HA-GSK3β-WT, -S9A, -K85R or -K85A,K86A; lysates pre-cleared, EZView anti-HA agarose beads, 4°C overnight; blots for p72, DGCR8 and HA.
The next test deals with HA-GSK3β-K85A,K86A (UniProt P49841). The description is as above.

B1: DiGeorge Critical Region 8 (DGCR8) (endogenous) (protein, UniProt Q8WYQ5 1-773)
chain: METDESPSPLPCGPAGEAVMESRARPFQALPREQSPPPPLQTSSGAEVMDVGSGGDGQSELPAEDPFNFYGASLLSKGSFSKGRLLIDPNCSGHSPRTARHAPAVRKFSPDLKLLKDVKISVSFTESCRSKDRKVLYTGAERDVRAECGLLLSPVSGDVHACPFGGSVGDGVGIGGESADKKDEENELDQEKRVEYAVLDELEDFTDNLELDEEGAGGFTAKAIVQRDRVDEEALNFPYEDDFDNDVDALLEEGLCAPKKRRTEEKYGGDSDHPSDGETSVQPMMTKIKTVLKSRGRPPTEPLPDGWIMTFHNSGVPVYLHRESRVVTWSRPYFLGTGSIRKHDPPLSSIPCLHYKKMKDNEEREQSSDLTPSGDVSPVKPLSRSAELEFPLDEPDSMGADPGPPDEKDPLGAEAAPGALGQVKAKVEVCKDESVDLEEFRSYLEKRFDFEQVTVKKFRTWAERRQFNREMKRKQAESERPILPANQKLITLSVQDAPTKKEFVINPNGKSEVCILHEYMQRVLKVRPVYNFFECENPSEPFGASVTIDGVTYGSGTASSKKLAKNKAARATLEILIPDFVKQTSEEKPKDSEELEYFNHISIEDSRVYELTSKAGLLSPYQILHECLKRNHGMGDTSIKFEVVPGKNQKSEYVMACGKHTVRGWCKNKRVGKQLASQKILQLLHPHVKNWGSLLRMYGRESSKMVKQETSDKSVIELQQYAKKNKPNLHILSKLQEEMKRLAEEREETRKKPKMSIVASAQPGGEPLCTVDV
With B1, the binding entry in test [1] is “binds”; in the test with HA-GSK3β (wild-type), “binds”; with HA-GSK3β-K85A,K86A it was “no binding”.
